From the supplement of paper PMC10338343
± gives the standard deviation. The list shows a part of the results, in another mix than the full data. The uncertainty is large for many entries. Some of the results follow.

How the values were obtained:
[1] = test system: MILI (PIWIL2) piRISC loaded with L1MC piRNA (26 nt); experiment: pre-steady-state target cleavage rate (min^-1); higher = faster piRNA-guided slicing of the target; conditions: guide: L1MC piRNA 5'p-UAACUAAAUACUAUGCAAGCUGUAGG
Method in brief: (§1)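 Cleave-'n-Seq reactions paired 0.1 nM transcribed, DNA-blocked target RNA library with 1 nM active affinity-purified piRISC holding one synthetic guide, plus or minus 500 nM GTSF1 partner protein, in HEPES–potassium acetate buffer at 33 °C for 0–8 or 0–960 min. After sequencing of uncleaved targets and normalisation to depth and weakly complementary targets, the pre-steady-state cleavage rate was taken from a burst-and-steady-state fit. Three trials were pooled, and k3 was capped at 0.0001 min^-1.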

[2] = test system: MIWI (PIWIL1) piRISC loaded with L1MC piRNA (30 nt); experiment: as above; conditions: guide: L1MC piRNA 5'p-UAACUAAAUACUAUGCAAGCUGUAGGUCCU
Method in brief: as §1

[3] = test system: EfPiwi piRISC loaded with L1MC piRNA (26 nt); experiment: pre-steady-state target cleavage rate (min^-1); guide: L1MC piRNA 5'p-UAACUAAAUACUAUGCAAGCUGUAGG; MIWI and MILI are mouse PIWI proteins and EfPiwi is from a freshwater sponge; tags in brackets are library labels; higher = faster piRNA-guided slicing of the target
Method in brief: as §1

[4] = auxiliary factor: 500 nM mouse GTSF1
[5] = auxiliary factor: none (no GTSF1)
[6] = auxiliary factor: 500 nM Ephydatia muelleri Gtsf1
[7] = auxiliary factor: none (no Gtsf1)

Row | Sequence | pre-steady-state target cleavage rate [1, 4] | pre-steady-state target cleavage rate [1, 5] | pre-steady-state target cleavage rate [2, 5] | pre-steady-state target cleavage rate [3, 6] | pre-steady-state target cleavage rate [3, 7] | pre-steady-state target cleavage rate [2, 4]
1 | UCCUGGAUCAGCUUGCAUAGUUUUUACAAA | 0.012 ± 0.0052 | 0.00102 ± 0.0046 | 0.00214 ± 0.0031 | 0.00288 ± 0.0037 | 0.000242 ± 0.035 | 
2 | UCCUCCUACAGCUUGCUAAGUAUUUAGUAA | 0.0708 ± 0.013 | 0.00132 ± 0.0047 | 0.0017 ± 0.0032 | 0.00132 ± 0.0057 | 0.000337 ± 0.016 | 
3 | UCCUGGAUGUCGUUGCAUAGUAUUAUCUUA | 0.000948 ± 0.01 | 0.000121 ± 0.045 |  | 0.000235 ± 0.011 | 0.000491 ± 0.015 | 0.000279 ± 0.029
4 | UCCUGCUACAGCUUGCAUAGUAAAAAGAAA | 0.0111 ± 0.0048 | 0.000722 ± 0.0092 | 0.000855 ± 0.0082 | 0.0018 ± 0.0024 | 0.00015 ± 0.031 | 
5 | UCCUGGAUCAGCUUCCAUAGUAUUUUGUUA | 0.00236 ± 0.0054 | 0.000378 ± 0.016 | 0.000229 ± 0.014 | 0.000802 ± 0.0069 | 0.000158 ± 0.037 | 
6 | UCCUGGUACAGCUUGCAUUGUAUUUAGAAA | 0.0202 ± 0.0075 | 0.00143 ± 0.005 | 0.00195 ± 0.0028 | 0.00329 ± 0.0019 | 0.00037 ± 0.026 | 
7 | UCCUGGAUGUCGUUGCAUAGUAUUUAGUGUA | 0.17 ± 0.027 | 0.00477 ± 0.0035 | 0.00218 ± 0.0049 | 0.000499 ± 0.011 | 0.000619 ± 0.015 | 
8 | UCCUGGAUGUCGAUGCAUAGUAUUGAGUUA | 0.0608 ± 0.013 | 0.00306 ± 0.0032 | 0.00155 ± 0.0045 | 0.00169 ± 0.0049 | 0.00057 ± 0.013 | 
9 | UCCUGGAUGUCGAAGCAUAGUAGUUAGUUA | 0.00345 ± 0.0035 | 0.00138 ± 0.0042 | 0.000761 ± 0.007 | 0.00117 ± 0.0054 | 0.000439 ± 0.014 | 
10 | UCCUGCUACAGCUUGCAUGAGUAUUUAGUUA | 0.0058 ± 0.0041 | 0.00173 ± 0.0033 | 0.000811 ± 0.0093 | 0.00232 ± 0.0025 | 0.00032 ± 0.027 | 
11 | UCCUGGAUGUCGAACGAUAGUAUUUAGUUU [g2:g14:cont:t1U] | 0.000148 ± 0.023 | 0.000376 ± 0.013 | 0.000556 ± 0.012 | 0.000119 ± 0.024 | < 0.0001 | 
12 | UCCUGGAUGUCGAUGCAAUAGUAUUUAGUUA | 0.00497 ± 0.0023 | 0.000974 ± 0.0065 | 0.000721 ± 0.0089 | 0.00119 ± 0.008 | 0.000113 ± 0.026 | 0.000666 ± 0.011
13 | UCCUGGAUGUCGAUGCAUAGUAGUUAGUUA | 0.0193 ± 0.005 | 0.00415 ± 0.0021 | 0.00102 ± 0.0046 | 0.00338 ± 0.0034 | 0.000534 ± 0.017 | 
14 | UCCUGGAUGUGCUUGCGAUAGUAUUUAGUUA | 0.00133 ± 0.0074 | 0.000541 ± 0.014 | 0.000915 ± 0.01 | 0.00257 ± 0.0027 | 0.00064 ± 0.015 | 0.00191 ± 0.0063
15 | UCCUGGAUGUCCUUGCAUAGUAUUUACAUA | 0.039 ± 0.013 | 0.000934 ± 0.0068 | 0.00207 ± 0.0035 | 0.00306 ± 0.0035 | 0.000362 ± 0.017 | 
16 | UCCUGGAUGUCGAUGCAUAGAUAUUUAGUUA | 0.00288 ± 0.0034 | 0.00146 ± 0.0047 | 0.00174 ± 0.0046 | 0.000274 ± 0.016 | 0.000405 ± 0.015 | 
17 | UCCUGGAUGUCCUUGCAUAGUAUAUACUUA | 0.00862 ± 0.0049 | 0.000586 ± 0.011 | 0.00135 ± 0.0048 | 0.00158 ± 0.0061 | 0.000408 ± 0.016 | 
18 | UCCUGCUACAGCUUGCGAUAGUAUUUAGUUA | 0.0073 ± 0.0045 | 0.00149 ± 0.0037 | 0.00174 ± 0.0041 | 0.00987 ± 0.0026 | 0.00213 ± 0.0051 | 
19 | UCCUGGAUGUCGAAGCAUAGAUUUAGUUA | 0.000952 ± 0.0094 | 0.00121 ± 0.0046 | 0.00132 ± 0.0058 | 0.000757 ± 0.0071 | 0.000501 ± 0.012 | 0.000335 ± 0.032
20 | UCCUGCUACAGCUUGCAUAGAUAUUAGUUA | 0.0176 ± 0.0073 | 0.00186 ± 0.0027 | 0.00137 ± 0.0037 | 0.00184 ± 0.0047 | 0.000329 ± 0.016 | 

Record cards (already shown).
UCCUGGAUGUCGAUGCAAUAGUAUUUAGUUA as listed: pre-steady-state target cleavage rate [1, 4] = 0.00497 ± 0.0023; pre-steady-state target cleavage rate [1, 5] = 0.000974 ± 0.0065; pre-steady-state target cleavage rate [2, 5] = 0.000721 ± 0.0089; pre-steady-state target cleavage rate [3, 6] = 0.00119 ± 0.008; pre-steady-state target cleavage rate [3, 7] = 0.000113 ± 0.026; pre-steady-state target cleavage rate [2, 4] = 0.000666 ± 0.011
UCCUGGAUGUCGUUGCAUAGUAUUUAGUGUA as listed: pre-steady-state target cleavage rate [1, 4] = 0.17 ± 0.027; pre-steady-state target cleavage rate [1, 5] = 0.00477 ± 0.0035; pre-steady-state target cleavage rate [2, 5] = 0.00218 ± 0.0049; pre-steady-state target cleavage rate [3, 6] = 0.000499 ± 0.011; pre-steady-state target cleavage rate [3, 7] = 0.000619 ± 0.015
UCCUCCUACAGCUUGCUAAGUAUUUAGUAA as listed: pre-steady-state target cleavage rate [1, 4] = 0.0708 ± 0.013; pre-steady-state target cleavage rate [1, 5] = 0.00132 ± 0.0047; pre-steady-state target cleavage rate [2, 5] = 0.0017 ± 0.0032; pre-steady-state target cleavage rate [3, 6] = 0.00132 ± 0.0057; pre-steady-state target cleavage rate [3, 7] = 0.000337 ± 0.016

(next part)

Row | Sequence | pre-steady-state target cleavage rate [1, 4] | pre-steady-state target cleavage rate [1, 5] | pre-steady-state target cleavage rate [2, 5] | pre-steady-state target cleavage rate [3, 6] | pre-steady-state target cleavage rate [3, 7] | pre-steady-state target cleavage rate [2, 4]
21 | UCCUGGAUCAGCUAGCAUAGUAUUUAGAAA | 0.139 ± 0.016 | 0.00177 ± 0.0036 | 0.00263 ± 0.0028 | 0.0036 ± 0.0022 | 0.000227 ± 0.032 | 
22 | UCCUCGAACAGCUUGCAUAGUAUUUUCAAA | 0.102 ± 0.021 | 0.00095 ± 0.0068 | 0.00296 ± 0.0031 | 0.00321 ± 0.0022 | 0.000406 ± 0.012 | 
23 | UCCUGGAUGUGCUUGCAAAGAAUUUAGUUA | 0.00234 ± 0.0052 | 0.00274 ± 0.0039 | 0.00226 ± 0.0031 | 0.000288 ± 0.022 | 0.000168 ± 0.063 | 0.00425 ± 0.0043
24 | UCCUGGAACAGCUUGCAUAGAUAUUAGAAA | 0.00344 ± 0.0041 | 0.000899 ± 0.006 | 0.000997 ± 0.0071 | 0.00054 ± 0.0059 | 0.000274 ± 0.018 | 
25 | UCCUGGAUGUCGAAGAAUAGUAUUUAGUUA | 0.000917 ± 0.0073 | 0.000437 ± 0.012 | 0.000262 ± 0.012 | 0.000318 ± 0.0085 | < 0.0001 | 
26 | UCCUGGAUGUGCUUGCAAUAGUAUUUAGUUA | 0.00398 ± 0.0037 | 0.00128 ± 0.0053 | 0.00121 ± 0.007 | 0.00338 ± 0.0036 | 0.00104 ± 0.0095 | 0.00341 ± 0.0039
27 | UCCUGGAUGUCGAAGCAUAGUCAUUUAGUUA | 0.00219 ± 0.0048 | 0.00109 ± 0.0048 | 0.0028 ± 0.0032 | 0.00108 ± 0.0066 | 0.000224 ± 0.028 | 0.0028 ± 0.0038
28 | UCCUGCUACAGCUUGCAGUAGUAUUUAGUUA | 0.00973 ± 0.0053 | 0.000752 ± 0.0085 | 0.000208 ± 0.024 | 0.0051 ± 0.0024 | 0.00108 ± 0.0072 | 
29 | UCCUGGAUGAGCUUGCAUCAGUAUUUAGUUA | 0.00196 ± 0.0062 | 0.000735 ± 0.009 | 0.000843 ± 0.0069 | 0.000392 ± 0.0092 | < 0.0001 | 
30 | UCCUGGAUGUCGAUGCAUAGUAUUUAGUUU [g2:g17:cont:t1U] | 0.09 ± 0.011 | 0.00618 ± 0.0021 | 0.00173 ± 0.0034 | 0.00213 ± 0.0035 | 0.000132 ± 0.028 | 
31 | UCCUGGAUGUCGAUGCAUAGUAUUUACAAA | 0.0066 ± 0.0042 | 0.000537 ± 0.0078 | 0.00025 ± 0.017 | 0.000373 ± 0.0069 | < 0.0001 | 
32 | UCCUGGAAGUGCUUGCAUAGUAUUUACAAA | 0.00262 ± 0.0043 | 0.000742 ± 0.0059 | 0.00191 ± 0.0031 | 0.00194 ± 0.0026 | 0.000296 ± 0.025 | 
33 | UCCUGGUACAGGAAGCAUAGUAUUUAGUAA | 0.167 ± 0.023 | 0.00332 ± 0.0019 | 0.00181 ± 0.0033 | 0.00265 ± 0.0028 | 0.000273 ± 0.019 | 
34 | UCCUGGAUGAGCUUGCAUAGUAUUAUGAAA | 0.00473 ± 0.0045 | 0.001 ± 0.0068 | 0.00248 ± 0.0035 | 0.000852 ± 0.0034 | 0.000503 ± 0.015 | 0.0112 ± 0.0054
35 | UCCUGGAUGUCGAUGCUAAGUAUUUAGUUA | 0.000987 ± 0.0085 | 0.000421 ± 0.011 | 0.000197 ± 0.013 | 0.000271 ± 0.0094 | 0.000166 ± 0.043 | 
36 | UCCUGGAUCAGCUAGCAUAGUAUUUACAAA | 0.127 ± 0.023 | 0.00215 ± 0.0032 | 0.0018 ± 0.0037 | 0.00262 ± 0.0028 | 0.000279 ± 0.028 | 
37 | UCCUGGAUGUCGAAGCAUAGUAGUUUAGUUA | 0.00907 ± 0.0034 | 0.00276 ± 0.0022 |  | 0.000479 ± 0.012 | 0.000409 ± 0.016 | 0.000187 ± 0.045
38 | UCCUGGAUGUCCUUGCAUAGGAUUUAGUUA | 0.00327 ± 0.004 | 0.0015 ± 0.0042 | 0.00136 ± 0.0048 | 0.000987 ± 0.0048 | 0.000271 ± 0.023 | 
39 | UCCUGGAACAGCAACCAUAGUAUUUAGUAA | 0.143 ± 0.019 | 0.00157 ± 0.0045 | 0.00118 ± 0.0068 | 0.00113 ± 0.0072 | 0.000227 ± 0.037 | 
40 | UCCUGGAUGUCCUUAGCAUAGUAUUUAGUUA | 0.0724 ± 0.016 | 0.00307 ± 0.0025 | 0.00204 ± 0.0036 | 0.00479 ± 0.003 | 0.000598 ± 0.0079 | 
